According to PubChem BioAssay AID485349 (National Center for Advancing Translational Sciences (NCATS), 2010):
In all, about 320,000 compounds went through this assay and about 620 (0.19%) were called active. The shares of active, inactive and inconclusive entries below differ from those in the screen. Calls follow the shape of the dose curve; as a rule, active = well fitted activation curve with a large enough effect; inconclusive = small, poorly fitted or top-dose-only effect; inactive = no such curve, though single readings can be large or run the other way. Where the call is inconclusive, the potency comes from a doubtful curve fit.

assay: qHTS Assay for Identifying a Potential Treatment of Ataxia-Telangiectasia; conditions: […] A-T fibroblasts, KAP-1 phosphorylation AlphaLISA, neocarzinostatin DNA damage 30 min before lysis; series mostly up to 57.5 µM; also: nearly all actives have a fitted effect of over 45% in size
Method in brief: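 hTERT-immortalized A-T patient fibroblasts ([…]), 500 cells/well in OPTI-MEM, 1% FBS, got compounds for 60 min, then NCS for 30 min at 37C. Lysates were then assayed for phospho-KAP-1 by AlphaLISA (anti-pKAP1 donor, anti-KAP1 acceptor beads), 6 hr at 25C.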
Potency is read from the fitted curve at half-maximal effect.

SMILES	Potency
CCCCN(CC)CCCNC(=O)c1cn(CC(C)C)c(=O)c2c1c1ccccc1n2C	active: 25.1 µM
NS(=O)(=O)c1ccc(N=Nc2ccc(O)c3ncccc23)cc1	inconclusive: 3.55 µM [activator, partial curve]
Cc1ccc(C2NC(c3ccc(C)cc3)C(C)C(=O)C2C)cc1 (stereo not drawn)	inconclusive: 8.91 µM [activator, full curve, poor fit]
O=C(CCc1ccccc1)Nc1nc2n(n1)C(c1ccccc1)CC(=O)N2 (stereo not drawn)	active: 31.6 µM
COC(=O)C1=CN(Cc2ccccc2)C=C(C(=O)OC)C1c1cc(F)ccc1F	inconclusive: 39.8 µM [activator, single point]
CCOc1ccccc1NC(=O)c1ccccc1-c1nc(-c2ccccc2)no1	inconclusive: 8.91 µM [activator, partial curve]
Cc1ccc2nc(NC(=O)C3CCCN(S(=O)(=O)c4cccc5nonc45)C3)sc2c1 (stereo not drawn)	inactive
C=C(C)n1c(=O)n(Cc2ccccc2C)c2ccccc21	active: 11.2 µM
O=C(COC(=O)C1CCC1)NC(=O)c1ccccc1	inconclusive: 4.47 µM [activator, single point]
CCCOc1ccc2cc(-c3ccccn3)c(=O)oc2c1	inconclusive: 28.2 µM [activator, partial curve]
CCn1c(SCc2ccc(OC)cc2)nnc1-c1ccncc1	inactive
CC(=O)Nc1cccc(C(=O)/C=C/c2ccc(Br)cc2)c1	active: 25.1 µM
O=C1CN(C(=O)COc2ccc(Cl)c(Cl)c2)c2ccccc2N1	inactive
COc1ccc(CC(=O)N2CCN(S(=O)(=O)c3cc(Cl)ccc3Cl)CC2)cc1	inactive
CN(Cc1cccs1)c1ncnc2sccc12	inactive
C=CCN1C(=O)/C(=C2/Sc3ccc(OC)cc3N2C)SC1=NCc1ccccc1	inactive
O=C(Cc1ccc(Cl)cc1)N1CCN(c2ccccc2)CC1	active: 22.4 µM
CC1Sc2ccc(C(=O)Nc3ncccc3O)cc2NC1=O (stereo not drawn)	inconclusive: 25.1 µM [activator, single point]
CCN(CC)S(=O)(=O)c1ccc(/C=C/C(=O)OCC(=O)NCc2ccco2)cc1	inconclusive: 35.5 µM [activator, single point]
Cn1c(=O)c(S(=O)(=O)C(C)(C)C)c(O)c2ccccc21	inactive
O=C(COc1ccc(Cl)cc1Br)NC(=O)NC1CCCC1	inactive
O=C(CCN1CCOCC1)Nc1ccc(F)cc1	inconclusive: 28.2 µM [activator, single point]
Cc1ccccc1CN(C)CCc1ccccn1	inactive
CN1CCN(c2ccc(C(=O)c3ccc(F)cc3)cc2)CC1	inactive

A draw from above in order of molecular weight, high to low:
SMILES	Potency
C=CCN1C(=O)/C(=C2/Sc3ccc(OC)cc3N2C)SC1=NCc1ccccc1	inactive
CC1Sc2ccc(C(=O)Nc3ncccc3O)cc2NC1=O (stereo not drawn)	inconclusive: 25.1 µM [activator, single point]
CCCOc1ccc2cc(-c3ccccn3)c(=O)oc2c1	inconclusive: 28.2 µM [activator, partial curve]

More results.

SMILES	Potency
Oc1ccc(Br)cc1/C=N/NC(=S)NCCc1ccccc1	inconclusive: 31.6 µM [activator, single point]
COc1ccc(Cc2nc3ccc(S(=O)(=O)N4CCOCC4)cc3[nH]2)cc1	inconclusive: 3.16 µM [activator, single point]
CCOC(=O)Cc1c(C)c2ccc(N(CC)CC)cc2oc1=O	active: 25.1 µM
Clc1cc(Cl)cc(C2=NCCC(c3ccccc3)O2)c1 (stereo not drawn)	inconclusive: 31.6 µM [activator, single point]
CC1(C)CCc2cc(S(=O)(=O)N3CCN(S(=O)(=O)c4c(F)cccc4F)CC3)ccc2O1	inactive
Cc1ccc(Cl)c(OCC(=O)Nc2cccnc2)c1	inconclusive: 1 µM [activator, full curve, poor fit]
Cc1ccc(N(CC(=O)NC2CC3CCC2C3)S(C)(=O)=O)cc1C (stereo not drawn)	inconclusive: 6.31 µM [activator, partial curve, poor fit]
CCOC(=O)C1=C(O)c2ccccc2C(=O)/C1=C\c1ccc(CC)cc1	inconclusive: 35.5 µM [activator, single point]
CC(C)(C)c1cc(NC(=O)Nc2ccc(Cl)cc2Cl)no1	inconclusive: 39.8 µM [activator, single point]
O=C1OCCN1C(=O)[C@H]1[C@H](c2ccccc2)C(c2cccc(Cl)c2)=NN1c1ccccc1	inconclusive: 28.2 µM [activator, single point]
O=C(Nc1cccc(Cl)c1Cl)c1ccccc1OCC(=O)N1CCOCC1	inactive
CN1CCN(CC(=O)Nc2ccc(S(=O)(=O)N(C)C)cc2)CC1	inconclusive: 0.631 µM [activator, full curve, poor fit]
CCCN1CCC(NCc2cn(C)nc2-c2ccc(Oc3ccccc3)cc2)CC1	inconclusive: 39.8 µM [activator, partial curve]
CCCCCCSc1cccc(-c2nc3ccc(C)cn3c2NC2CCCCC2)c1	inconclusive: 17.8 µM [activator, partial curve]
O=C1CCCC2=C1C(c1ccc(Cl)cc1)C1C(=O)c3ccccc3C1=N2 (stereo not drawn)	inactive
CCOC(=O)c1csc(N/N=C2\CCCc3ccccc32)n1	inconclusive: 0.631 µM [activator, partial curve, poor fit]
O=C(CN1CCN(c2ccc(O)cc2)CC1)Nc1cc([N+](=O)[O-])ccc1Cl	inactive
CCCCCCCCCCCCC(NC(C)=O)(C(=O)OCC)C(=O)OCC	inconclusive: 39.8 µM [activator, partial curve, poor fit]
CCCCOc1ccccc1C1C(C(=O)OC)=CN(CC)C=C1C(=O)OC	inconclusive: 31.6 µM [activator, single point]
CCc1cc(-c2n[nH]c(=S)n2-c2cccc(C)c2)cs1	inactive
CCN(CC)CCSc1nc2ccccc2n1Cc1ccccc1	inconclusive: 4.47 µM [activator, single point]
C=C1CCC(O)C2(C)CCC3C(C)C(=O)OC3C12O (stereo not drawn)	inconclusive: 39.8 µM [activator, single point]
Cc1cccc(/C=C(\c2nc3ccccc3[nH]2)S(=O)(=O)c2ccccc2)c1	active: 35.5 µM
Cc1ccc(-n2c(CC#N)n[nH]c2=S)c(C)c1	inconclusive: 0.316 µM [activator, full curve, poor fit]
